According to the supplement of paper PMC4604168 (melanoma cell lines):
The other results are listed elsewhere or left out. Single values are uncertain, as repeats are few or missing.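 The apoptosis fraction was the count of cleaved-PARP antibody-stained nuclei relative to all DNA-stained nuclei, imaged in 1,536-well plates. Screening doses were set so most cells survived, and baseline and induced cleaved-PARP levels vary greatly across cell lines.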

What was measured:
Assay in all cases: cleaved PARP positive nuclei fraction relative to DMSO control; melanoma cells; higher = more apoptosis
Settings in all cases: library dose: low library concentration; 72 h
501Mel = test system: 501Mel
A101D = test system: A101D
A2058 = test system: A2058
A375 = test system: A375
C32 = test system: C32
CBRC008 = test system: CBRC008 (line from a melanoma biopsy)
CBRC014 = test system: CBRC014 (line from a melanoma biopsy)
CBRC016 = test system: CBRC016 (line from a melanoma biopsy)
CBRC017 = test system: CBRC017 (line from a melanoma biopsy)
CBRC034 = test system: CBRC034 (line from a melanoma biopsy)
COLO792 = test system: COLO792
COLO800 = test system: COLO800
COLO829 = test system: COLO829
G361 = test system: G361
IPC-298 = test system: IPC-298
IST-MEL1 = test system: IST-MEL1
LB2518-MEL = test system: LB2518-MEL
LOXIMVI = test system: LOXIMVI
MEL-HO = test system: MEL-HO

Structure (SMILES)	cleaved PARP positive nuclei fraction (501Mel)	cleaved PARP positive nuclei fraction (A101D)	cleaved PARP positive nuclei fraction (A2058)	cleaved PARP positive nuclei fraction (A375)	cleaved PARP positive nuclei fraction (C32)	cleaved PARP positive nuclei fraction (CBRC008)	cleaved PARP positive nuclei fraction (CBRC014)	cleaved PARP positive nuclei fraction (CBRC016)	cleaved PARP positive nuclei fraction (CBRC017)	cleaved PARP positive nuclei fraction (CBRC034)	cleaved PARP positive nuclei fraction (COLO792)	cleaved PARP positive nuclei fraction (COLO800)	cleaved PARP positive nuclei fraction (COLO829)	cleaved PARP positive nuclei fraction (G361)	cleaved PARP positive nuclei fraction (IPC-298)	cleaved PARP positive nuclei fraction (IST-MEL1)	cleaved PARP positive nuclei fraction (LB2518-MEL)	cleaved PARP positive nuclei fraction (LOXIMVI)	cleaved PARP positive nuclei fraction (MEL-HO)
Cn1cnc2c(F)c(Nc3ccc(Br)cc3Cl)c(C(=O)NOCCO)cc21 [selumetinib] + CS(=O)(=O)c1ccc(C(=O)Nc2ccc(Cl)c(-c3ccccn3)c2)c(Cl)c1 [vismodegib] (first compound 0.015 µM, partner dose 1 µM)	308%	43.5%	124%	105%	63.6%	100%	108%	122%	137%	85.4%	21.2%	311%	38.3%	191%	98.2%	129%	226%	150%	197%
COc1ccc(C2=N[C@@H](c3ccc(Cl)cc3)[C@@H](c3ccc(Cl)cc3)N2C(=O)N2CCNC(=O)C2)c(OC(C)C)c1 [Nutlin-3] + CN(c1ncccc1CNc1nc(Nc2ccc3c(c2)CC(=O)N3)ncc1C(F)(F)F)S(C)(=O)=O [PF562271] (first compound 0.1 µM, partner dose 0.08 µM)	94.8%	160%	29.2%	87.2%	78.1%	46.7%	96.6%	84.3%	306%	150%	148%	135%	96.2%	94.3%	42.9%	125%	332%	163%	132%
NC1(c2ccc(-c3nc4ccn5c(=O)[nH]nc5c4cc3-c3ccccc3)cc2)CCC1 + Cn1c(Nc2ccc(C(F)(F)F)cc2)nc2cc(Oc3ccnc(-c4ncc(C(F)(F)F)[nH]4)c3)ccc21 [CHIR265] (first compound 0.4 µM, partner dose 0.08 µM)	109%	165%	62.7%	612%	107%	228%	101%	86.8%	99.6%	83%	265%	152%	121%	109%	194%	106%	187%	165%	123%
Cn1sc(=O)n(Cc2ccccc2)c1=O + NC1(c2ccc(-c3nc4ccn5c(=O)[nH]nc5c4cc3-c3ccccc3)cc2)CCC1 [MK2206] (first compound 0.4 µM, partner dose 0.4 µM)	96.2%	99.7%	153%	53%	71.9%	88.4%	97.5%	119%	104%	134%	141%	166%	114%	93.6%	46.8%	121%	209%	114%	49.4%
CN(c1ncccc1CNc1nc(Nc2ccc3c(c2)CC(=O)N3)ncc1C(F)(F)F)S(C)(=O)=O + Nc1ccn([C@@H]2O[C@H](CO)[C@@H](O)C2(F)F)c(=O)n1 [gemcitabine] (first compound 0.08 µM, partner dose 0.0004 µM)	240%	113%	116%	159%	114%	30.4%	130%	260%	130%	83.7%	140%	333%	220%	212%	91.3%	172%	90.9%	40.2%	129%
CC1(C)CCC(c2ccc(Cl)cc2)=C(CN2CCN(c3ccc(C(=O)NS(=O)(=O)c4ccc(N[C@H](CCN5CCOCC5)CSc5ccccc5)c(S(=O)(=O)C(F)(F)F)c4)cc3)CC2)C1 + Nc1ccn([C@@H]2O[C@H](CO)[C@@H](O)C2(F)F)c(=O)n1 [gemcitabine] (first compound 0.4 µM, partner dose 0.0004 µM)	82.6%	113%	168%	330%	169%	715%	1660%	1030%	747%	271%	274%	90.2%	117%	244%	151%	107%	135%	258%	97.5%
CCCCCCCCc1ccc(CCC(N)(CO)CO)cc1 [fingolimod] + CNC(=O)c1cc(Oc2ccc(NC(=O)Nc3ccc(Cl)c(C(F)(F)F)c3)cc2)ccn1 [sorafenib] (first compound 2 µM, partner dose 0.4 µM)	171%	190%	37.5%	235%	80.3%	51.9%	97.5%	65.1%	140%	90.6%	85.4%	158%	37.1%	142%	89.3%	70.1%	96.6%	105%	184%
C[C@@H](N)c1ccc(C(=O)Nc2ccnc3[nH]ccc23)cc1 + COCC[n+]1c2c(n(Cc3cnccn3)c1C)C(=O)c1ccccc1C2=O [YM155] (first compound 0.4 µM, partner dose 0.0004 µM)	55.5%	45%	115%	97.5%	92.9%	316%	118%	111%	90.1%	34.8%	79.5%	73.9%	110%	123%	87.2%	59.8%	81.7%	143%	118%
